The other results are listed elsewhere or left out. These are further read-outs of the screen, such as a control signal, another cell line or another target. No call is given for them. Compounds called inactive in the main read-out are mostly missing here. Potencies come from curve fits of mixed quality, noted in brackets.
Test: qHTS Assay for Lipid Storage Modulators in Drosophila S3 Cells;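 for cell number change: cells counted by Cell Tracker Red CMTPX staining in the red channel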
Conditions: BODIPY lipid droplet fluorescence, 18-24 h; for cell number change: measured here: cell count max response, cells fed with added oleic acid
How it was run: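 Laser-scanning cytometry quantifies lipid droplet accumulation (500–530 nm total intensity; droplet/cell object ratio) in oleic acid-fed (400 uM added) Drosophila S3 cells treated with a concentration series. 20 uM Triacsin C defined 100% inhibition.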

[1] = measured here: cell number channel AC50, cells fed with added oleic acid
[2] = measured here: lipid fluorescence (Fed channel) AC50, cells fed with added oleic acid

Row | SMILES | cell number change [%] | AC50 [1] | AC50 [2]
1 | Cc1ccc(OCC(=O)Nc2ccc(NC(=O)c3ccccc3)c(C)c2)cc1 | 62.9 | 25.9 µM [rising, single point] | –
2 | CCn1c(CNC(=O)c2cccc(C)c2)nnc1SCC(=O)NC1=NCCS1 | -5.13 | – | –
3 | COc1ccccc1CNC(=O)N1CCN(c2ccccc2C)CC1 | -8.56 | – | 0.164 µM [rising, full curve, poor fit]
4 | CCCCCCc1cc2cc(-c3nnc(-c4ccccc4OC)o3)c(=O)oc2cc1O | -59.4 | 29.1 µM [falling, partial curve] | –
5 | CC1Cc2ccccc2N1C(=O)CSC1=NCCS1 (centres undefined) | -9.97 | – | 0.0291 µM [falling, full curve]
6 | COc1ccc(OC)c(NC(=O)c2cc3c(Cl)nc4ccccc4c3s2)c1 | 0.986 | – | –
7 | O=C(Nc1cccc(-c2nc3ccccc3o2)c1)c1cccnc1 | 23.3 | – | –
8 | CN(C(=O)CCN1C(=O)c2ccccc2C1=O)C1CCCCC1 | 114 | 9.2 µM [rising, partial curve] | 6.51 µM [rising, single point]
9 | CCNc1c([N+](=O)[O-])c(=O)oc2ccccc12 | 43.3 | 20.6 µM [rising, partial curve] | –
10 | C=CCN(CC=C)CCCOc1ccccc1C(=O)OC | -28.6 | – | 29.1 µM [falling, single point]
11 | CC(C)C[C@H](NC(=O)OC(C)(C)C)c1nnc(SCC(=O)Nc2ccc(Br)cc2)o1 | -39.3 | 9.2 µM [falling, partial curve] | 29.1 µM [falling, single point]
12 | Cc1ccc(-c2noc(N=O)c2NO)cc1 | -15.4 | – | –
13 | O=C1N/C(=C/c2ccc(Br)s2)C(=O)N1c1ccccc1 | -46.4 | 29.1 µM [falling, single point] | 25.9 µM [falling, partial curve, poor fit]
14 | Cc1nnc(N2C(=O)c3ccc(Br)cc3C2=O)s1 | -11.4 | – | 25.9 µM [rising, partial curve, poor fit]
15 | CCC(Oc1ccccc1)C(=O)N1CC(C)CC(C)C1 (centres undefined) | -1.35 | – | 14.6 µM [falling, partial curve]
16 | Cc1c(C(=O)N2CCOCC2)c(S(=O)(=O)Nc2cccc(C#N)c2)c(C)n1C | 17.4 | – | 25.9 µM [rising, partial curve, poor fit]
17 | CN1CCN(c2c(F)cc3c(=O)c(C(=O)O)cn(CCF)c3c2F)CC1 | -47.8 | 3.66 µM [falling, full curve] | 2.91 µM [falling, full curve]
18 | Cc1ccc2c([N+](=O)[O-])cccc2n1 | 0.392 | – | 0.58 µM [rising, single point]
19 | CCOc1ccccc1-n1nnnc1SCC(=O)NC(=O)Cc1ccccc1 | 1.6 | – | 0.0517 µM [rising, full curve]
20 | COc1ccc(CC(=O)NNS(=O)(=O)c2ccc3ccccc3c2)cc1OC | -15.2 | – | –
21 | Cc1ccc2cc(CN(CC3CCCO3)C(=O)NC3CCCCC3)c(=O)[nH]c2c1C (centres undefined) | -22.5 | – | 1.84 µM [rising, full curve, poor fit]
22 | Cc1cccc2cc(CN(Cc3cccnc3)C(=S)NCCCN(C)C)c(=O)[nH]c12 | -13.2 | – | 29.1 µM [falling, single point]

Row | SMILES | cell number change [%] | AC50 [1] | AC50 [2]
23 | O=C(CCCCCN1C(=O)c2ccccc2C1=O)NCc1ccco1 | -13.7 | – | –
24 | COCCn1c(C)nc2oc3ccc(Br)cc3c(=O)c2c1=O | -6.84 | – | 0.00411 µM [rising, full curve, poor fit]
25 | O=C(NCc1ccccc1)c1cc(-n2cnnc2)ccc1Cl | -13.5 | 0.00461 µM [rising, full curve, poor fit] | 11.6 µM [falling, partial curve, poor fit]
26 | Cc1noc(C)c1S(=O)(=O)NCC(=O)O | 6.39 | – | 29.1 µM [falling, partial curve]
27 | Cc1[nH]c(=O)[nH]c(=O)c1NC(=O)c1sc2nc3c(C)cccc3cc2c1N | 23.5 | – | 3.66 µM [rising, partial curve]
28 | COc1ccc(-c2nc(CS(=O)CC(=O)NCCN3CCCCCC3)c(C)o2)cc1OC (centres undefined) | -3.63 | – | –
29 | CC(=O)Nc1ccc(NC(=O)CSCCc2ccccn2)cc1 | -35.7 | 0.731 µM [falling, full curve] | –
30 | O=C(CN1CCSC1=O)N1CCN(S(=O)(=O)c2ccc(F)cc2)CC1 | -8.87 | – | 0.0164 µM [rising, full curve, poor fit]
31 | CCCn1c(-c2ccc(OC)cc2)nc2ccccc21 | 8.16 | 0.00461 µM [rising, full curve, poor fit] | –
32 | Clc1cccc(Cl)c1C1=NOC(c2nnc(-c3ccccc3)o2)C1 (centres undefined) | -2.19 | – | –
33 | CC(=O)c1c(C)n(-c2cccc(Cl)c2)c2ccc(O)cc12 | 12.8 | – | –
34 | CS/C(=C\[N+](=O)[O-])Nc1ccc(Cl)cc1 | 35.9 | 29.1 µM [rising, single point] | –
35 | O=C(c1ccccc1NS(=O)(=O)c1ccc(F)cc1)N1CCOCC1 | 20.2 | – | –
36 | Cc1ccc(C)c(S(=O)(=O)Nc2ccc(C(=O)NCCCN3CCOCC3)cc2)c1 | -12.4 | – | –
37 | COc1cccc(NC(=O)c2ccccc2-c2nc(-c3ccc(Cl)cc3)no2)c1 | -22 | – | 13 µM [rising, partial curve]
38 | CCc1c(C)sc(NC(=O)Cn2nc(C(F)(F)F)c3c2CCCC3)c1C#N | 136 | – | –
39 | COc1cc(Cl)cc(CN2CCC(CCC(=O)NC3CC3)CC2)c1OC | 28.8 | – | 18.4 µM [rising, single point]
40 | COc1ccc(NC(=O)c2cc(-c3ccc(C)cc3)on2)cc1OC | -23.8 | – | –
41 | Cc1c(S(=O)(=O)N2CCC(C)CC2)c(=O)n(C)c(=O)n1C | -37.6 | 0.164 µM [falling, partial curve, poor fit] | 4.61 µM [falling, full curve]
42 | O=C(CSc1nc2c(sc3ccccc32)c(=O)n1CCO)NCc1ccco1 | -4.52 | – | 0.517 µM [falling, single point]
43 | O=S(=O)(N/N=C/c1ccc(Cl)cc1)c1ccc(Cc2ncc(C(F)(F)F)cc2Cl)s1 | -3.74 | – | 0.116 µM [rising, full curve, poor fit]
44 | O=C(Cn1cncn1)NCc1cccc(C(F)(F)F)c1 | 34.6 | 6.51 µM [rising, partial curve, poor fit] | 1.3 µM [rising, partial curve]

Row | SMILES | cell number change [%] | AC50 [1] | AC50 [2]
45 | CCOCCc1nnc(NC(=O)C(C)Oc2ccccc2)s1 (centres undefined) | -26.3 | – | 7.31 µM [falling, single point]
46 | O=C(CNC(=O)C12CC3CC(CC(C3)C1)C2)OCC(=O)N1CCCCC1 | 10 | – | –
47 | COCCNC(=O)C(c1ccc(F)cc1)N(C(=O)CCC(=O)Nc1ccccn1)c1ccc(C)cc1 (centres undefined) | 11.7 | – | 0.58 µM [rising, single point]
48 | CCC1CCCCN1CC(=O)Nc1ccc2c(c1)OCCO2 (centres undefined) | 10.1 | 0.731 µM [rising, partial curve, poor fit] | –
49 | COC(=O)c1sc(SC)c2c1CC(C)(C)C/C2=N/O | -2.77 | – | –
50 | COc1cc2c(cc1NC(=O)CSc1nc3ccc(C)cc3[nH]1)oc1ccccc12 | -59 | 29.1 µM [falling, single point] | 32.6 µM [falling, partial curve, poor fit]
51 | COc1ccc(-c2cc(C(=O)N(C)Cc3cccc(OC)c3OC)c3ccccc3n2)cc1OC | -10.3 | – | 4.11 µM [rising, partial curve]
52 | CCOC(=O)c1c(C)n(-c2ccc(C)cc2)c2ccc(O)c(CN(C)C)c12 | -11.1 | – | 0.116 µM [falling, full curve, poor fit]
53 | O=C(CCNS(=O)(=O)c1ccc(Cl)cc1)N1CCN(c2ncccn2)CC1 | 23.3 | – | –
54 | O=C(O)C1CCN(S(=O)(=O)c2ccc(N3CCOCC3)c([N+](=O)[O-])c2)CC1 | 5.25 | – | –
55 | O=C(Cc1ccc(S(=O)(=O)N2CCOCC2)s1)Nc1nc2c(s1)CCCC2 | -20.5 | – | –
56 | Cc1cc(C(=O)OCC(=O)N2C(C)CCCC2C)c(C)o1 (centres undefined) | -36.2 | 16.4 µM [falling, partial curve, poor fit] | 5.17 µM [falling, partial curve, poor fit]
57 | CCOC(=O)Cn1c(S(=O)(=O)Cc2ccccc2Cl)nc(-c2ccccc2)c1-c1ccccc1 | – | 6.51 µM [rising, single point] | –
58 | C=CCNC(=O)NC(=O)COC(=O)c1cccnc1SC | 14.4 | – | –
59 | NC(=S)NNC(=O)Nc1ccc(Cl)c(Cl)c1 | -50 | 29.1 µM [falling, partial curve, poor fit] | –
60 | COc1ccc(C2=NOC(C(=O)Nc3cccnc3)C2)cc1OC (centres undefined) | 0.191 | – | –
61 | O=C(C1=NN[C@@H]2C(=O)N(Cc3ccccc3)C(=O)[C@H]12)c1ccc(F)cc1 | -38.4 | 18.4 µM [falling, partial curve, poor fit] | 6.51 µM [falling, single point]
62 | CCN(Cc1ccccc1)C(=S)NC(=O)c1ccccc1Br | -8.11 | – | 29.1 µM [falling, single point]
63 | CCOC(=O)CC1(NC(=O)C2CCC(=O)N(C3CC3)C2)CCCCC1 (centres undefined) | 3.42 | – | 29.1 µM [rising, single point]
64 | Cc1nc2ccc(NC(=O)c3ccc([N+](=O)[O-])cc3[N+](=O)[O-])cc2s1 | -31.8 | 16.4 µM [falling, single point] | –
65 | Cc1nnc(NC(=O)CSc2nnc(Cc3cccn3C)n2CCc2ccccc2)s1 | 7.89 | – | 0.184 µM [falling, full curve]

From PubChem BioAssay AID2685 (National Center for Advancing Translational Sciences (NCATS), 2010)
